Test results published in PMC6877644.
These are yes or no findings as the source states them, for the method shown. Binding seen in cells or lysates may run through a third protein. Some entries that bind do so weakly or less than the wild type. Tags and fused reporters may be left off the sequences shown.

Target: T1, FLAG-MSL1 (D. melanogaster) (UniProt P50535)
T1 sequence: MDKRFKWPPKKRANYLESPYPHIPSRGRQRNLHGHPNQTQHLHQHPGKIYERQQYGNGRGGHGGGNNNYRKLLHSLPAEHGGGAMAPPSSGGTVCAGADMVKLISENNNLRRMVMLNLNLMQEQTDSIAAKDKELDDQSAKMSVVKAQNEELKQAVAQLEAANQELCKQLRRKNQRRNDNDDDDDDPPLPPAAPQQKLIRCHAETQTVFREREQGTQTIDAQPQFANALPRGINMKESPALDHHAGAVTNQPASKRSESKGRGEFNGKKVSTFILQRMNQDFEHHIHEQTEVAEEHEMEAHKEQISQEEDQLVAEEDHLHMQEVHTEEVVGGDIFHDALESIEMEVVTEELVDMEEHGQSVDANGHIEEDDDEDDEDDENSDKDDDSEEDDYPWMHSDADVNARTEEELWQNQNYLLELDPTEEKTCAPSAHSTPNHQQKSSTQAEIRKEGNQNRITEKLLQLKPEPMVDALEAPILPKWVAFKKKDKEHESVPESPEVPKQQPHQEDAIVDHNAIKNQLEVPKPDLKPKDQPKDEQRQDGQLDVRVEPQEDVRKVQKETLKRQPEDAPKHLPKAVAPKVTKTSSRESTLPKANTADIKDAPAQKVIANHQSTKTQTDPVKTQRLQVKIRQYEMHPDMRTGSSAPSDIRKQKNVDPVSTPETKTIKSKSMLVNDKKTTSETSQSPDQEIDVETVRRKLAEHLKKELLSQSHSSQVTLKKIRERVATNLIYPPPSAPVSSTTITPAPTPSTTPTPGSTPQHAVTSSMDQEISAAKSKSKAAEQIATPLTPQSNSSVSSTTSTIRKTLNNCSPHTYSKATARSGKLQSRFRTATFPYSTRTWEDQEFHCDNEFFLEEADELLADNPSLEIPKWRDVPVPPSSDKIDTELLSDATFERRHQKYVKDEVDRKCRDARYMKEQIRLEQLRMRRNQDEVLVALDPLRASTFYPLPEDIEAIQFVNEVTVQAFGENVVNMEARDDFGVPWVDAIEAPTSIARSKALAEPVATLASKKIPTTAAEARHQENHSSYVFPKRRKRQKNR
Test: co-IP; Sf21 extracts with JJ-complex (FLAG-JIL-1/untagged JASPer) and with FLAG-MSL1/untagged MSL2 and FLAG-MSL3 mixed to similar concentrations; IP with antibodies specific for the bait (MSL1 or JIL-1)

binding: binds
B1: untagged MSL2 (protein, UniProt P50534 1-773)
chain: MAQTAYLKVTRIAMRSASNLSKRRVEELNSGLGELRQLLSCVVCCQLLVDPYSPKGKRCQHNVCRLCLRGKKHLFPSCTQCEGCSDFKTYEENRMMAAQLLCYKTLCVHLLHSALFGELAGMRPQVARELVPRIKLPPKTTQEFIREGSNISDTFDIFLPQPDLPFLKDMPTSLPAETPPTSAVTTPELPYDHHLNISDIEAEAAATAEQGHFSPLPLLPTGSRMGMLSHAGQIVIATESSESGFMDQAWTDQVDLSGTVSVSKYTNSGNNFAVSYVMPTSATTKFDPQELQIGQVVQMADSTQLAVLAAVEETVETSTQLTVLSTTVEETVETSTQLEVLTSAEEPNEISDQLANLQVEESDEALVEETVEEAEGTSIPSEVVAEHMEEDQHLDVHTSQSPTQTEMEEAVEEHVATKTQLGHVQTELQDAESLQKDFEDAKAAAEEAKEKEKDLHAISAELQKEDSDEPTLKRKRTRTLKASQAAKIEPVPSEVKTKVQSGKGALRRIRGKDKEEKVKPPKPKCRCGISGSSNTLTTCRNSRCPCYKSYNSCAGCHCVCCKNPHKEDYVESDEDDDLEDFEMPKDVPEPMTQSEEPVVAEPRQEENSMAPPDSSAPISLVPLNNLQQSQHPLVLVQNEKGEYQGFNIFQGSKPLDPVTVGFTIRVQLQHTDGFGSLPQYAYIMPTIDPPNPPAPSLSPPPPPAPDREVIEPPAKKFRTSRTRRGRANFSALDTVDELVSGGSRSNSAAGDRSSATDNAHSLFEEIMSGSDDL
